Source: PubChem BioAssay AID1053208 (Peter MacCallum Cancer Centre, 2014)
Assay: 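Genes whose silencing cuts survival of bone tumour cells only with doxorubicin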 (primary screen). Cell system: mouse osteosarcoma cells, early-passage culture from an engineered mouse model of fibroblastic bone tumour. Knock-down reagent: siRNA pool against mouse genes, 40 nM. Timing: about 120 h (48 h before drug, then 72 h with drug). Treatment: doxorubicin 100 nM for 72 h, roughly 30-40% inhibitory dose. Measurement: 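Viability read as ATP luminescence after 72 h of 100 nM doxorubicin or none, duplicate wells averaged, scaled to non-targeting siRNA, then expressed as robust z-scores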. Reading the numbers: viability z-score with doxorubicin and doxorubicin viability vs non-targeting: higher = more viable cells under doxorubicin; viability z-score without drug: higher = more viable cells with knock-down alone; z-score of drug to no-drug ratio: higher = less drug sensitisation by knock-down. Call rule: 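Called active if knock-down leaves viability unchanged without drug (z within -2 to 2) but lowers it with doxorubicin (z at or under -2)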.
Here is one part, drawn at random, of about 17,000 reagents. 788 of them (4.7%) count as active. 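Calls rest on z-score classes alone; an extra cut-off of viability at most 70% of control was not applied to them.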

Target gene,combined z-score class,viability z-score with doxorubicin,viability z-score without drug,z-score of drug to no-drug ratio,doxorubicin viability vs non-targeting,Call
Tmigd1 (transmembrane and immunoglobulin domain containing 1),no change with or without drug,0.67,1.85,-0.45,1,inactive
Snrnp40 (small nuclear ribonucleoprotein 40 (U5)),no change with or without drug,0.67,0.34,0.56,1,inactive
Fgf15 (fibroblast growth factor 15),no change with or without drug,0,-0.34,0.34,0.94,inactive
Lyzl1 (lysozyme-like 1),no change with or without drug,1.35,0.84,0.9,1.06,inactive
Baat (bile acid-Coenzyme A: amino acid N-acyltransferase),high cell count with and without drug,2.7,3.71,0.34,1.18,inactive
D830039M14Rik (RIKEN cDNA D830039M14 gene),no change with or without drug,0,-0.17,0.22,0.94,inactive
Scg3 (secretogranin III),high cell count with and without drug,2.92,3.2,0.79,1.2,inactive
Fbxo8 (F-box protein 8),no change with or without drug,0.79,1.85,-0.34,1.01,inactive
1700049L16Rik (RIKEN cDNA 1700049L16 gene),no change with or without drug,-0.45,1.69,-1.35,0.9,inactive
Zfp867 (zinc finger protein 867),no change with or without drug,-1.01,-0.67,-0.56,0.85,inactive
"Vmn2r-ps11 (vomeronasal 2, receptor, pseudogene 11)",no change with or without drug,-0.45,1.52,-1.24,0.9,inactive
DOCK8,no change with or without drug,1.69,0.51,1.46,1.09,inactive
Brf2,high cell count with doxorubicin only,2.02,0.84,1.57,1.12,inactive

Targets listed so far whose target name starts with D or d:
Target gene,combined z-score class,viability z-score with doxorubicin,viability z-score without drug,z-score of drug to no-drug ratio,doxorubicin viability vs non-targeting,Call
D830039M14Rik (RIKEN cDNA D830039M14 gene),no change with or without drug,0,-0.17,0.22,0.94,inactive
DOCK8,no change with or without drug,1.69,0.51,1.46,1.09,inactive

Next entries:
Target gene,combined z-score class,viability z-score with doxorubicin,viability z-score without drug,z-score of drug to no-drug ratio,doxorubicin viability vs non-targeting,Call
"Gnptg (N-acetylglucosamine-1-phosphotransferase, gamma subunit)",no change with or without drug,0,-0.51,0.45,0.94,inactive
Cfp (complement factor properdin),high cell count with doxorubicin only,2.36,1.52,1.46,1.15,inactive
Tspear (thrombospondin type laminin G domain and EAR repeats),no change with or without drug,-1.35,-0.17,-1.24,0.82,inactive
Rtkn (rhotekin),high cell count without drug only,1.57,2.36,0.11,1.08,inactive
Or10d5 (olfactory receptor family 10 subfamily D member 5),no change with or without drug,-1.91,0.34,-2.14,0.77,inactive
Csf3r (colony stimulating factor 3 receptor),high cell count without drug only,1.57,2.19,0.22,1.08,inactive
D930020B18Rik (RIKEN cDNA D930020B18 gene),high cell count without drug only,0.45,2.19,-0.79,0.98,inactive
